# Measured values taken from the supplement of paper PMC10338343.
# ± gives the standard deviation. The entries are a selection whose mix differs from that of the whole data set. Many entries were measured with a wide error.
# Test system: EfPiwi piRISC loaded with piRNA #1 (26 nt)
# Test: pre-steady-state target cleavage rate (min^-1); guide: piRNA #1 5'p-UGAGGUAGUAGGUUGUAUAGUAUCCA; MIWI and MILI are mouse PIWI proteins and EfPiwi is from a freshwater sponge; tags in brackets are library labels; higher = faster piRNA-guided slicing of the target
# Details: auxiliary factor: 500 nM Ephydatia muelleri Gtsf1
# In short: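 In this Cleave-'n-Seq assay, uncleaved targets were sequenced and normalised to depth and to weakly complementary targets. They came from a transcribed, DNA-blocked target RNA library […] mixed with 1 nM active affinity-purified piRISC carrying one synthetic guide, with or without 500 nM GTSF1 partner protein, in HEPES–potassium acetate buffer at 33 °C for 0–8 or 0–960 min. After three trials were pooled and k3 was capped at 0.0001 min^-1, the pre-steady-state cleavage rate was obtained from a burst-and-steady-state fit.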
row,Sequence,pre-steady-state target cleavage rate
1,GGAGACCUAUCUAUACUACCUAGUACCUCA,0.00113 ± 0.0048
2,GGAGUGGAUACUAAACAACCUACUACCACA,0.003 ± 0.0021
3,GGAGAGAAUACUAUACAACCUACUACCUCA,0.0106 ± 0.0053
4,GGAGACCUUACUAUACAACCUAUUACCUCA,0.0052 ± 0.0025
5,GGAGACCUAAGUAUACAACCUUCUACCUCA,0.00148 ± 0.0038
6,GGAGACCUAUCAUAACAACCUACUACCUCA,0.00531 ± 0.0037
7,GGAGACCUAUGUUUACAAGCUACUACCUCA,0.00111 ± 0.0052
8,GGAGAGGAUACUUUUCAACCUACUACCUCA,0.00409 ± 0.004
9,GGAGUCCUUACUAUACAACCUACUACCUCA,0.0555 ± 0.021
10,GGAGACCUAUCUAUACAACCUACAUCCUCA,0.00178 ± 0.005
11,GGAGACGAUACUAUAUAACCUACUACCUCA,0.0091 ± 0.0042
12,GGAGACCUAAUUAUACAACCUACUACCUCA,0.0144 ± 0.0065
13,GGAGACCUAUGUAUUACAACCUACUACCUCA,0.0036 ± 0.0033
14,GGAGACCUAUGUAUACAACCUACUACGUGA,0.000475 ± 0.01
15,GGAGACCUUACUAUACAACCAACAACCUCA,0.000335 ± 0.0093
16,GGAGACCUAUCUAUAGUACCUACUACCUCA,0.00138 ± 0.0051
17,GGAGAGGAUACUAAAGAACCUACUACCUCA,0.00164 ± 0.0045
18,GGAGACGUUACUUUACAACCUACUACCUCA,0.00215 ± 0.0037
19,GGAGACCUAACUUUACAACCUACUAGCUCA,0.00152 ± 0.0074
20,GGAGACCUAACUAUACAACCUACUUACCUCA,0.00322 ± 0.0039

# Nothing new here: an excerpt of the list.
row,Sequence,pre-steady-state target cleavage rate
3,GGAGAGAAUACUAUACAACCUACUACCUCA,0.0106 ± 0.0053
4,GGAGACCUUACUAUACAACCUAUUACCUCA,0.0052 ± 0.0025
5,GGAGACCUAAGUAUACAACCUUCUACCUCA,0.00148 ± 0.0038

# (further entries)

row,Sequence,pre-steady-state target cleavage rate
1,GGAGUGGAUACUAUUGAACCUACUACCUCA,0.000328 ± 0.0097
2,GGAGACCUAUGUAUACAACCUAAUACCUCA,0.000733 ± 0.0063
3,GGAGACCUAUGAUAUGAACCUGCUACCUCA,0.000205 ± 0.02
4,GGAGACCAUACUAUACAAGCUAGUACCUCA,0.0032 ± 0.0027
5,GGAGAGGAUACUAUACAACGAACUACCUCA,0.00227 ± 0.0025
6,GGAGACCUAUGAUAUGUACCUACUAUCUCA,0.000466 ± 0.011
7,GGAGUGGAUAGUAUACAACCUACUAGCUCA,0.00291 ± 0.0018
8,GGAGACCUUUCUAUACAACCUACUACCUGA,0.0049 ± 0.0044
9,GGAGACCUAUCUUUACAUCCUACUACCUCA,0.00277 ± 0.0038
10,GGAGAGGAUACUUUACUACCUACUACCUCA,0.003 ± 0.0031
11,GGAGUGGAAUACUAUACAACCUACUACCUCA,0.122 ± 0.045
12,GGAGACCUAUGUAUACAAACUACUACCUCA,0.00137 ± 0.0045
13,GGAGACCUAUGAUAUGAAGGAACUACCUCA,0.000206 ± 0.013
14,GGAGACCUAUCUAUACAACGUACUACCUCA,0.00256 ± 0.0026
15,GGAGAGGAUACUAUACAACCUACUACCCA,0.0052 ± 0.0025
16,GGAGACCUAUGUUUACAACCUAGUACCUCA,0.00204 ± 0.0034
17,GGAGACCUUACUAUACAACCUACUACCCA,0.00518 ± 0.0043
18,GGAGUGGAUACUAUACAACCAACUACCUGA,0.00303 ± 0.0013
19,GGAGACCUAACUAUACAACCUCCUACCUCA,0.00446 ± 0.0029
20,GGAGUGGAUACUUUACAACCAACUACCUCA,0.00219 ± 0.0023
